This is an account of results in article PMC5286426, “The Calcium-Dependent Switch Helix of L-Plastin Regulates Actin Bundling” (Scientific Reports, 2017).

The test deals with T1, L-plastin ABD2 (residues 384-627) (human) (UniProt P13796).
T1 sequence: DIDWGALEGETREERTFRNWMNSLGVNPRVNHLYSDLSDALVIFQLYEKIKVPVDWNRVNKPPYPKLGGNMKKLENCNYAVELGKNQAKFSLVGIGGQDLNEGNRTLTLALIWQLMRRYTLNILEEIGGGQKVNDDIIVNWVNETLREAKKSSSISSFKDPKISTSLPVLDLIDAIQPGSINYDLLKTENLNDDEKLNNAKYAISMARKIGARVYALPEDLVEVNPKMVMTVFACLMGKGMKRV
The experiment in a line: NMR titration; synthetic H5 peptide titrated into 15N-labelled ABD2 (residues 384-627); 1H,15N HSQC; both purified.

Results are given in words; binding and its absence hold for the method and conditions named.

B1: synthetic H5 peptide representing the H5 region of LPL (residues 83-100) (peptide)
peptide: STDVAKTFRKAINKKEGI
modifications: N-terminal acetyl (Ac-); C-terminal amide (-NH2)
Turning to B1, the binding entry is recorded as “no binding”.
